Type in all cases: cell-based
The target of experiment [1] is T1, RNA polymerase II (Mus musculus) (UniProt P08775+Q8CFI7+P97760+A0A3Q4L2S8+Q80UW8+P61219+P62488+Q923G2+P60898+O08740+Q63871+P62876). Kind of experiment: Inhibition of RNA polymerase II in mouse B16-F1 migrating cells assessed as fold change in Pitrm1-RNA stability at 0.1 mM measured by ChIP-seq analysis relative to control cells.
For experiment [2], the target named is T1, RNA polymerase II (Mus musculus). Kind of experiment: Inhibition of RNA polymerase II in mouse B16-F1 migrating cells assessed as fold change in Tnnt1-RNA stability at 0.1 mM measured by ChIP-seq analysis relative to control cells.
For experiment [3] the target is unchanged. Kind of experiment: Inhibition of RNA polymerase II in mouse B16-F1 migrating cells assessed as fold change in Anp32e-RNA stability at 0.1 mM measured by ChIP-seq analysis relative to control cells.
Experiment [4] shares this target. Kind of experiment: Inhibition of RNA polymerase II in mouse B16-F1 migrating cells assessed as fold change in Cir1-RNA stability at 0.1 mM measured by ChIP-seq analysis relative to control cells.
For experiment [5] the target is unchanged. Kind of experiment: Inhibition of RNA polymerase II in mouse B16-F1 migrating cells assessed as fold change in Rpl28-RNA stability at 0.1 mM measured by ChIP-seq analysis relative to control cells.
Experiment [6] shares this target. As to the kind of experiment: Inhibition of RNA polymerase II in mouse B16-F1 migrating cells assessed as fold change in Zfp748-RNA stability at 0.1 mM measured by ChIP-seq analysis relative to control cells.
The target is the same in experiment [7]. As to the kind of experiment: Inhibition of RNA polymerase II in mouse B16-F1 migrating cells assessed as fold change in Ccdc34-RNA stability at 0.1 mM measured by ChIP-seq analysis relative to control cells.
Experiment [8] has the same target. As to the kind of experiment: Inhibition of RNA polymerase II in mouse B16-F1 migrating cells assessed as fold change in Atp6v0d1-RNA stability at 0.1 mM measured by ChIP-seq analysis relative to control cells.
For experiment [9] the target is unchanged. As to the kind of experiment: Inhibition of RNA polymerase II in mouse B16-F1 migrating cells assessed as fold change in Pmf1-RNA stability at 0.1 mM measured by ChIP-seq analysis relative to control cells.
Experiment [10] has the same target. As to the kind of experiment: Inhibition of RNA polymerase II in mouse B16-F1 migrating cells assessed as fold change in Gtf2h1-RNA stability at 0.1 mM measured by ChIP-seq analysis relative to control cells.
Experiment [11] has the same target. As to the kind of experiment: Inhibition of RNA polymerase II in mouse B16-F1 migrating cells assessed as fold change in Fanca-RNA stability at 0.1 mM measured by ChIP-seq analysis relative to control cells.
For experiment [12] the target is unchanged. As to the kind of experiment: Inhibition of RNA polymerase II in mouse B16-F1 migrating cells assessed as fold change in Slc2a5-RNA stability at 0.1 mM measured by ChIP-seq analysis relative to control cells.
The target is the same in experiment [13]. As to the kind of experiment: Inhibition of RNA polymerase II in mouse B16-F1 migrating cells assessed as fold change in Chm-RNA stability at 0.1 mM measured by ChIP-seq analysis relative to control cells.
Experiment [14] shares this target. Kind of experiment: Inhibition of RNA polymerase II in mouse B16-F1 migrating cells assessed as fold change in Dock11-RNA stability at 0.1 mM measured by ChIP-seq analysis relative to control cells.
Experiment [15] has the same target. Kind of experiment: Inhibition of RNA polymerase II in mouse B16-F1 migrating cells assessed as fold change in Itsn2-RNA stability at 0.1 mM measured by ChIP-seq analysis relative to control cells.
Experiment [16] shares this target. As to the kind of experiment: Inhibition of RNA polymerase II in mouse B16-F1 migrating cells assessed as fold change in Etv3-RNA stability at 0.1 mM measured by ChIP-seq analysis relative to control cells.
Experiment [17] concerns the target Histone-lysine N-methyltransferase EZH2 (Mus musculus) (UniProt Q61188). Kind of experiment: Inhibition of EZH2 in mouse B16-F1 migrating cells assessed as fold change in H3K27me3-buffered regulated Dusp5-mRNA expression at 3 uM measured by ChIP-seq analysis relative to control cells.
For experiment [18] the target is unchanged. As to the kind of experiment: Inhibition of EZH2 in mouse B16-F1 migrating cells assessed as fold change in H3K27me3-buffered regulated Gab3-mRNA expression at 3 uM measured by ChIP-seq analysis relative to control cells.
Experiment [19] shares this target. Kind of experiment: Inhibition of EZH2 in mouse B16-F1 migrating cells assessed as fold change in H3K27me3-buffered regulated Mllt10-mRNA expression at 3 uM measured by ChIP-seq analysis relative to control cells.
For experiment [20] the target is unchanged. As to the kind of experiment: Inhibition of EZH2 in mouse B16-F1 migrating cells assessed as fold change in H3K27me3-independent regulated Mpp2-mRNA expression at 3 uM measured by ChIP-seq analysis relative to control cells.
Experiment [21] shares this target. As to the kind of experiment: Inhibition of EZH2 in mouse B16-F1 migrating cells assessed as fold change in H3K27me3-buffered regulated Plekhg2-mRNA expression at 3 uM measured by ChIP-seq analysis relative to control cells.
For experiment [22] the target is unchanged. Kind of experiment: Inhibition of EZH2 in mouse B16-F1 migrating cells assessed as fold change in H3K27me3-independent regulated Dok5-mRNA expression at 3 uM measured by ChIP-seq analysis relative to control cells.
For experiment [23] the target is unchanged. Kind of experiment: Inhibition of EZH2 in mouse B16-F1 migrating cells assessed as fold change in H3K27me3-buffered regulated Gas1-mRNA expression at 3 uM measured by ChIP-seq analysis relative to control cells.
The target is the same in experiment [24]. As to the kind of experiment: Inhibition of EZH2 in mouse B16-F1 migrating cells assessed as fold change in H3K27me3-buffered regulated Mtm1-mRNA expression at 3 uM measured by ChIP-seq analysis relative to control cells.
For experiment [25] the target is unchanged. As to the kind of experiment: Inhibition of EZH2 in mouse B16-F1 migrating cells assessed as fold change in H3K27me3-independent regulated Gm3839-mRNA expression at 3 uM measured by ChIP-seq analysis relative to control cells.
Experiment [26] has the same target. Kind of experiment: Inhibition of EZH2 in mouse B16-F1 migrating cells assessed as fold change in H3K27me3-buffered regulated Sh3pxd2b-mRNA expression at 3 uM measured by ChIP-seq analysis relative to control cells.
Experiment [27] has the same target. Kind of experiment: Inhibition of EZH2 in mouse B16-F1 migrating cells assessed as fold change in H3K27me3-independent regulated Psrc1-mRNA expression at 3 uM measured by ChIP-seq analysis relative to control cells.
Experiment [28] has the same target. Kind of experiment: Inhibition of EZH2 in mouse B16-F1 migrating cells assessed as fold change in H3K27me3-buffered regulated Hmgcr-mRNA expression at 3 uM measured by ChIP-seq analysis relative to control cells.
For experiment [29] the target is unchanged. Kind of experiment: Inhibition of EZH2 in mouse B16-F1 migrating cells assessed as fold change in H3K27me3-dependent regulated Tha1-mRNA expression at 3 uM measured by ChIP-seq analysis relative to control cells.
Experiment [30] shares this target. As to the kind of experiment: Inhibition of EZH2 in mouse B16-F1 migrating cells assessed as fold change in H3K27me3-buffered regulated BC022687-mRNA expression at 3 uM measured by ChIP-seq analysis relative to control cells.

Sequences of proteins named here, by UniProt entry; tags and fusion partners are left off.
UniProt Q61188, whole entry: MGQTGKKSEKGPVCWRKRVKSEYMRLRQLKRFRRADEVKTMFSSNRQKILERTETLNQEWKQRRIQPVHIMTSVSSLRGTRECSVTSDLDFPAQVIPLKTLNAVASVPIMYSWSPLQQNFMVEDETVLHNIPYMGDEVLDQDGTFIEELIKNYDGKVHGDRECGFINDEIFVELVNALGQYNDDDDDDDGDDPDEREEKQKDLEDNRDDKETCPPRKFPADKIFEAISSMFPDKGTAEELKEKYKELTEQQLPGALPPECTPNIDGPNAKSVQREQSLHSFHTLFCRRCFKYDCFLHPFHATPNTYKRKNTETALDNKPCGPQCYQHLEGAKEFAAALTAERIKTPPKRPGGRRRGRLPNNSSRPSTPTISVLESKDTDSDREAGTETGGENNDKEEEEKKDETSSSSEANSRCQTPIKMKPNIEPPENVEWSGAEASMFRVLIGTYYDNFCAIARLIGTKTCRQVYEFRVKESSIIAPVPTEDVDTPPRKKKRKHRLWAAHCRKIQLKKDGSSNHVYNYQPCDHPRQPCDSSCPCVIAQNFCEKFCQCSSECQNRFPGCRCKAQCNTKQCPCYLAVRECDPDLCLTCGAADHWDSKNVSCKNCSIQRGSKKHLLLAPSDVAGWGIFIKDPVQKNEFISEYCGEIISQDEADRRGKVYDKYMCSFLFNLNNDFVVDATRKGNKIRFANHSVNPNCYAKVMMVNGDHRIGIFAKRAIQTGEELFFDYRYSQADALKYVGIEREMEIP

The source gives many values for each of these; only a part stands here.

Turning to `OC[C@H]1O[C@@H](n2cnc3cc(Cl)c(Cl)cc32)[C@H](O)[C@@H]1O`, the log2FC is -0.5 in experiment [1]; 0.87 in experiment [2]; -0.46 in [3]; -0.69 in experiment [4]; 0.58 in [5]; -0.85 in [6]. The log2FC was -0.94 in experiment [7]; 0.62 in [8]; 0.42 in experiment [9]; -0.73 in experiment [10]; -0.48 in [11]; 0.48 in experiment [12]. Moreover, the log2FC in experiment [13] is -0.92; in [14], -0.56; in experiment [15] it was -0.54; in experiment [16], -0.63.
Turning to `CCCc1cc(C)[nH]c(=O)c1CNC(=O)c1cc(-c2ccnc(N3CCN(C)CC3)c2)cc2c1cnn2C(C)C`, the log2FC in experiment [17] was 1.17; in experiment [18], -0.85; in experiment [19], -0.46; in experiment [20], 0.55; in [21], -0.39; in experiment [22], 0.77. In addition, the log2FC was -1.11 in experiment [23]; -0.48 in [24]; 0.51 in experiment [25]; 0.4 in experiment [26]; -0.56 in experiment [27]; 0.48 in [28]. Besides, the log2FC in [29] was -0.12; in experiment [30] it was 0.48.
